Some of the results follow. Further columns of the screen follow, without active or inactive calls. Most of these compounds were active or inconclusive in the main read-out, so they are no random draw. The note in brackets gives the kind of curve behind each potency; many fits are weak.
Assay: qHTS Assay to Find Inhibitors of Chronic Active B-Cell Receptor Signaling
Settings: ABC-DLBCL IkBa-CBG/CBR reporter, luminescence ratio (green luciferase fused to IkBa over red control in TMD8 lymphoma cells), 4 h
Summary of the method: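 TMD8 ABC-DLBCL cells carrying doxycycline-inducible green luciferase fused to IkappaBalpha plus unfused red luciferase were exposed to compounds (up to 46 uM) for 4 hrs at 37C. Activity came from the overlap-corrected green/red luminescence ratio.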

[1] = measured here: CBR red luminescence, cell number
[2] = measured here: IkBa-CBG green luminescence

SMILES	AC50 [1]	AC50 [2]
O=C(NC1CCSc2ccccc21)c1c(F)cccc1Cl (configuration not stated)	5.62 µM [falling, single point]	
CN1CCN(c2nc(-c3ccccc3)nc(-c3ccccc3)c2C#N)CC1	25.1 µM [rising, single point]	
Cc1nnc(OC(C)C)c2nn(-c3ccccc3F)c(C)c12	2.91 µM [rising, full curve, poor fit]	
CCCCCCSc1ccc([C@H]2N[C@@](Cc3ccccc3)(C(=O)OC)[C@H]3C(=O)N(C)C(=O)[C@@H]23)cc1OC	23.1 µM [rising, partial curve, poor fit]	
COc1cc(C=C(c2nc3ccccc3s2)c2nc3ccccc3s2)ccc1O	18.4 µM [falling, single point]	
O=C(N/N=C/c1cc(Br)cs1)c1ccccc1[N+](=O)[O-]	5.17 µM [falling, partial curve]	
CCN(C(=O)CCN1C(=O)/C(=C/c2ccccc2)SC1=S)C1CCS(=O)(=O)C1 (configuration not stated)	17.8 µM [falling, single point]	
COc1ccc(C2NCCc3c2[nH]c2ccccc32)cc1CN1CCc2cc(OC)c(OC)cc2C1C (configuration not stated)	17.8 µM [falling, single point]	
CC(=O)c1cc2c(cc1NC(=O)CSc1nc3ccc(C)cc3[nH]1)OCO2	20.6 µM [falling, partial curve]	
COc1ccc(OC)c(NC(=O)Cn2c(C)nc3ccccc3c2=O)c1	11.2 µM [falling, partial curve]	
CCC(C)Nc1nc(-c2ccccn2)nc2ccccc12 (configuration not stated)	35.5 µM [falling, single point]	
CCOC(=O)c1c(NC(=S)NC(=O)c2ccc(Cn3cc(Cl)cn3)o2)sc2c1CCCCC2	3.98 µM [falling, single point]	
CCn1c(O)c(/C=N/NC(=O)c2ccncc2)c(=O)n(CC)c1=S	10.3 µM [falling, partial curve, poor fit]	
O=[N+]([O-])c1cc(C(F)(F)F)ccc1NCCNC(=S)Nc1ccc(Cl)cc1	20 µM [falling, single point]	
COc1ccc(C2=NN(C(=O)c3cccs3)C(c3ccc(OC)cc3)C2)cc1 (configuration not stated)	18.4 µM [falling, partial curve]	
O=S(=O)(c1cc(F)ccc1F)N1CCN(c2ncnc3ccccc23)CC1	25.9 µM [falling, single point]	25.9 µM [falling, single point]
C=CCOC(=O)C1=C(C)NC(SCC(N)=O)=C(C#N)C1c1cccs1 (configuration not stated)	10.3 µM [falling, partial curve, poor fit]	
c1ccc2c(c1)ccc1nnc(SCc3ccc4c(c3)OCO4)n12	18.4 µM [rising, single point]	
C/C(=C\c1ccc(Br)cc1)C(=O)c1c(C)cc(C)[nH]c1=O	11.2 µM [falling, partial curve, poor fit]	
CC(C)Cn1c(N)c(C(=O)COC(=O)c2ccc(Br)cc2)c(=O)n(C)c1=O	0.517 µM [rising, full curve]	
N#CC1=C(N)NC(SCC(=O)c2ccc(Cl)cc2)=C(C#N)C12CCCC2	29.1 µM [falling, single point]	
CCS(=O)(=O)c1ccc(O)c(NC(=O)COc2ccc(Cl)cc2)c1	35.5 µM [falling, single point]	

Fetched by structure from above, four records:
SMILES	AC50 [1]	AC50 [2]
O=S(=O)(c1cc(F)ccc1F)N1CCN(c2ncnc3ccccc23)CC1	25.9 µM [falling, single point]	25.9 µM [falling, single point]
COc1ccc(C2=NN(C(=O)c3cccs3)C(c3ccc(OC)cc3)C2)cc1 (configuration not stated)	18.4 µM [falling, partial curve]	
CC(=O)c1cc2c(cc1NC(=O)CSc1nc3ccc(C)cc3[nH]1)OCO2	20.6 µM [falling, partial curve]	
COc1cc(C=C(c2nc3ccccc3s2)c2nc3ccccc3s2)ccc1O	18.4 µM [falling, single point]	

The listing continues.

SMILES	AC50 [1]	AC50 [2]
CCc1ccc(NC(=O)N2CCc3ccccc3C2)cc1	0.447 µM [rising, partial curve, poor fit]	
CN(C)c1ccc(CC2C(=O)Nc3ccccc32)cc1 (configuration not stated)	15.8 µM [falling, partial curve]	
O=C(N[C@H]1/C=C\[C@@H](O)CCCC1)OCc1ccccc1	6.51 µM [rising, partial curve, poor fit]	
COc1cc(O)c(C(CCN2CCN(c3ccccc3)CC2)c2ccc(N(C)C)cc2)c(OC)c1 (configuration not stated)	35.5 µM [falling, single point]	
CC1CCC(NC(=O)c2cc3ccccc3cc2O)CC1 (configuration not stated)	29.1 µM [falling, single point]	
COC(=O)C1(C#N)C(c2ccccc2)C1(C(=O)OC)C(=O)OC (configuration not stated)	29.1 µM [rising, single point]	
Cc1ccc(OCC(=O)Nc2ccc3c4c(cccc24)CC3)c(C)c1	3.26 µM [rising, single point]	
CC(CN1CCN(c2ccccc2)CC1)c1ccccc1 (configuration not stated)	7.94 µM [rising, partial curve, poor fit]	
Cc1sc2ncnc(N3CCC(C(=O)Nc4ccc(OC(F)F)c(Cl)c4)CC3)c2c1C	29.1 µM [falling, single point]	
Clc1ccc2oc(-c3cccnc3)nc2c1	2.82 µM [rising, full curve]	
Cc1cc(N2C(=O)C(O)=C(C(=O)c3ccc(C)o3)C2c2cccs2)no1 (configuration not stated)	1.03 µM [falling, full curve, poor fit]	
Cc1cc(NC(=O)C2CC(c3cccc(Br)c3)=NO2)no1 (configuration not stated)	1.3 µM [falling, full curve, poor fit]	
CC1CCCN(CC(O)COCc2ccccc2)C1 (configuration not stated)	31.6 µM [falling, single point]	
O=C(CN1CCN(S(=O)(=O)c2ccc(Br)cc2)CC1)Nc1ccc(F)cc1	20.6 µM [falling, single point]	
c1ccc2sc(-c3ccc4c(c3)OCO4)nc2c1	15.8 µM [falling, single point]	
O=C1NC(SCCCF)=N/C1=C/c1ccc(-n2cncn2)cc1	35.5 µM [rising, single point]	
COc1ccccc1C(=O)OCc1cc(=O)n2ccsc2n1	18.4 µM [falling, partial curve]	
Cc1cc(C(=O)N/N=C/c2cccn2C)n[nH]1	4.11 µM [falling, partial curve]	
O=C(NCC1CCCO1)c1cc(C(=O)c2ccc(Cl)cc2Cl)c[nH]1 (configuration not stated)	35.5 µM [falling, single point]	
CCOc1ccc2nc(NC(=O)c3cnccn3)sc2c1	5.01 µM [rising, full curve, poor fit]	
COc1ccccc1NC(=O)CSc1nc2ncccc2[nH]1	15.8 µM [falling, partial curve, poor fit]	
CN(C)c1ccc(-c2ccc3oc(-c4ccsc4)cc(=O)c3c2)cn1	14.6 µM [rising, partial curve, poor fit]	

SMILES	AC50 [1]	AC50 [2]
CCn1cc(CN2CCCC(C(=O)Nc3ccc(-c4nc5ccccc5[nH]4)cc3)C2)c(C)n1 (configuration not stated)	8.91 µM [falling, partial curve, poor fit]	
Cn1c(C(=O)N2CCCC(C(=O)NCCN3CCOCC3)C2)cc2sccc21 (configuration not stated)	20.6 µM [rising, single point]	
Cc1cccc(OCC(=O)Nc2ccc3c(c2)nc(CCN2CCC(C)CC2)n3C)c1	7.08 µM [falling, full curve]	
CNC(=O)N(O)C1N(/N=C/c2ccccc2OC)C(=S)SC1(C)C (configuration not stated)	35.5 µM [falling, single point]	
COc1ccccc1CNC(=O)COc1ccccc1OC	29.1 µM [rising, single point]	
COCC(=O)Nc1nc2ccc(C)cc2s1	20.6 µM [falling, partial curve, poor fit]	
C/C(=N\Nc1ccc(Cl)c(C(=O)O)c1)c1ccc2c(c1)OCO2	10 µM [falling, partial curve, poor fit]	
CCCCCc1c(C)nc(N2CCc3ccccc32)[nH]c1=O	10.3 µM [rising, partial curve]	
Cc1ccc(NCc2ccc(C)s2)cc1	17.8 µM [rising, single point]	
CN(C)CCNC(=O)/C(=C/c1ccc(-c2cccc(Cl)c2)o1)NC(=O)c1ccccc1	29.1 µM [falling, single point]	
CCOC(=O)c1c(C)[nH]c(C(=O)OC/C(O)=C(\C#N)c2nc3ccccc3[nH]2)c1C	25.9 µM [rising, partial curve, poor fit]	
Cc1ccc(-n2ccnc(SCC(=O)NC3CCCCC3)c2=O)cc1F	20.6 µM [falling, single point]	
CC/C(=N\NC(=O)Nc1nonc1N)c1ccc(OC)c(OC)c1	14.1 µM [rising, single point]	
CCN1C(=O)N(CN2CCOCC2)C2C1N(CN1CCOCC1)C(=O)N2CC (configuration not stated)	0.00411 µM [rising, full curve, poor fit]	
CCN(CC)CCCNC(=O)c1cc2c(-c3ccc(Cl)cc3)nn(C)c2s1	29.1 µM [falling, single point]	
CCC(C)Nc1nc2c(c(=O)n(C)c(=O)n2C)n1C (configuration not stated)	0.447 µM [falling, full curve]	
CCOc1ccc(C(=O)c2cccs2)cc1	3.16 µM [rising, full curve, poor fit]	
Cc1cccc(NC(=O)c2ccc(N3CCCCC3)c([N+](=O)[O-])c2)n1	10 µM [falling, partial curve]	
Cc1ccc(C(=O)NNC(=O)OC(C)(C)C)c(Cl)c1	4.11 µM [falling, full curve, poor fit]	
Cc1cc(CNC(=O)Cn2nc(C)c([N+](=O)[O-])c2C)c2ccccc2n1	22.4 µM [rising, single point]	25.1 µM [falling, single point]
Clc1ccc2c(c1)CNc1c(ncnc1N1CCOCC1)O2	6.31 µM [rising, single point]	
